{
  "sequences": {"note": "Chains of the proteins cited; added tags and fusions are not shown.", "UniProt P53350, whole entry, looked up": "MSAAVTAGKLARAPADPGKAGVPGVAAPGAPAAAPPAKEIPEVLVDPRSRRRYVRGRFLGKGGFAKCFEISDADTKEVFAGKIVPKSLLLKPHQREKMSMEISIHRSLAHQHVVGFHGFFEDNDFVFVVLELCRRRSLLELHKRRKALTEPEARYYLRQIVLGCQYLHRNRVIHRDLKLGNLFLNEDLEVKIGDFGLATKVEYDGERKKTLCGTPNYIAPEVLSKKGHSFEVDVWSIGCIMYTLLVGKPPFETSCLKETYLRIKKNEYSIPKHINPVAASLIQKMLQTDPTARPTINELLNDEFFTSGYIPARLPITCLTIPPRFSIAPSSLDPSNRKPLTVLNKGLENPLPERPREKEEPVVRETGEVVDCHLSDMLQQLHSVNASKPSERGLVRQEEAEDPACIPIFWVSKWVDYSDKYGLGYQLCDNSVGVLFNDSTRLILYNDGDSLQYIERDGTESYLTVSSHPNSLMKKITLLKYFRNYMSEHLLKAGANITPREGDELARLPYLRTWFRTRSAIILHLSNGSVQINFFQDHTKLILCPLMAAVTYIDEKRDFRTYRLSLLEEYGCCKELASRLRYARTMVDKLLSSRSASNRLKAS"},
  "source": "PubChem BioAssay AID720504",
  "about": "(National Center for Advancing Translational Sciences (NCATS), 2013)",
  "note": "Out of some 360,000 compounds screened, about 10,000 (2.8%) were called active. This list was built around the results that the source calls inconclusive (neither active nor inactive); the mix of calls is not that of the screen. Calls follow the shape of the dose curve; as a rule, active = well fitted inhibition curve with a large enough effect; inconclusive = small, poorly fitted or top-dose-only effect; inactive = flat fitted curve, though single readings scatter. A potency beside an inconclusive call is a rough fit, not a confirmed value. % is scaled to controls: 0 for no effect and ±100 for the full control effect; potency is read from the fitted curve at half-maximal effect.",
  "data": [
    {"molecular_target": "Serine/threonine-protein kinase PLK1 (Homo sapiens) (UniProt P53350)", "assay": "qHTS for Inhibitors of PLK1-PDB (polo-like kinase 1 - polo-box domain): Primary Screen; also: nearly all actives have a fitted effect of over 65% in size; as to max response, negative = inhibition: series mostly up to about 57 µM", "settings": "Plk1 PBD binding of FITC phosphopeptide, fluorescence polarization", "values": [
      {"smiles": "Cc1ccc(C2C3CN(C(C)C)CC=C3C(C#N)=C(N)C2(C#N)C#N)cc1", "note": "(stereo not given)", "Potency": "inconclusive: 17.8 µM [inhibitor, partial curve]"},
      {"smiles": "O=C(NC(=S)Nc1ccc(N2CCCC2)cc1)c1ccc(F)cc1", "max response, negative = inhibition": "inactive: 6.12%"},
      {"smiles": "O=C(O)c1ccccc1N=Cc1c(O)n(-c2nccs2)c(=O)c2ccccc12", "Potency": "inconclusive: 29.9 µM [inhibitor, partial curve]"},
      {"smiles": "CCOC(=O)c1cc(-c2ccc(N3CCOCC3)cc2)nn1-c1ccccc1C(=O)O", "Potency": "active: 18.9 µM"},
      {"smiles": "NC(=O)c1sc2nc(-c3cccs3)ccc2c1N", "Potency": "inconclusive: 26.7 µM [inhibitor, partial curve]"},
      {"smiles": "Cc1ccccc1Nc1n[nH]c(=S)s1", "Potency": "inconclusive: 29.9 µM [inhibitor, partial curve]"},
      {"smiles": "O=C(CNC(=O)Cc1ccccc1)NCC(=O)OCc1ccccc1", "max response, negative = inhibition": "inactive: -7.86%"},
      {"smiles": "O=C(/C=C/c1ccc(Cl)c([N+](=O)[O-])c1)c1cccnc1", "max response, negative = inhibition": "inconclusive: -37.3% [inhibitor]"},
      {"smiles": "CCC(C)(C)c1ccc(OCCCC[n+]2ccccc2)c(C(C)(C)CC)c1", "max response, negative = inhibition": "inactive: -11.9%"},
      {"smiles": "O=C(Nc1nnc(Cc2ccccc2F)s1)c1ccccc1Cl", "Potency": "inconclusive: 29.9 µM [inhibitor, partial curve]"},
      {"smiles": "O=C1NC(=O)/C(=C/c2ccccc2Oc2ccc(Cl)cc2)S1", "Potency": "inconclusive: 16.8 µM [inhibitor, partial curve]"},
      {"smiles": "Clc1ccccc1/C=N/c1cc(-c2ccccc2)nn1-c1ccccc1", "Potency": "active: 16.8 µM"},
      {"smiles": "COC(=O)CSc1nnc(-c2ccccc2OC)n1-c1ccc(C)cc1", "Potency": "active: 26.7 µM"},
      {"smiles": "Cc1[nH]c2ccccc2c1C(C#N)(C#N)C1C(=O)c2ccccc2C1=O", "Potency": "inconclusive: 29.9 µM [inhibitor, partial curve]"},
      {"smiles": "CCCC(=O)Nc1sc(C)c(-c2ccc(OC)cc2)c1C#N", "max response, negative = inhibition": "inactive: -4.57%"},
      {"smiles": "CC1(C)CC(=O)C(=Cc2cn(-c3ccccc3)nc2-c2ccc(Cl)cc2)C(=O)C1", "Potency": "active: 1.19 µM"},
      {"smiles": "CCOC(=O)c1sc(=S)n(C)c1NC(=O)c1ccccc1C", "Potency": "active: 5.97 µM"},
      {"smiles": "Nc1ccc(C(=O)N2CCN(S(=O)(=O)c3ccc(Cl)cc3)CC2)cc1[N+](=O)[O-]", "max response, negative = inhibition": "inactive: -9.21%"},
      {"smiles": "COC(=O)CCC/C=C1/SCC(NC(=O)c2ccccc2)C1=O", "note": "(stereo not given)", "Potency": "inconclusive: 29.9 µM [inhibitor, partial curve]"},
      {"smiles": "O=[N+]([O-])c1ccc(/C=N/n2cnc3ccccc32)s1", "Potency": "inconclusive: 37.7 µM [inhibitor, single point]"},
      {"smiles": "Cn1ccnc1C(=O)c1cc(SCC(=O)NCc2ccccc2)nc2ccccc12", "Potency": "active: 21.2 µM"},
      {"smiles": "Nc1nc(C2CC2)c(Sc2sc(N)nc2C2CC2)s1", "Potency": "inconclusive: 26.7 µM [inhibitor, partial curve]"},
      {"smiles": "O=C(CCN1C(=O)c2ccncc2C1=O)Nc1ccc2c(c1)OCCO2", "Potency": "inconclusive: 21.2 µM [inhibitor, partial curve]"},
      {"smiles": "CCN(Cc1ccccc1)C(c1cc2ccc(C)cc2[nH]c1=O)c1nnnn1CCOC", "note": "(stereo not given)", "max response, negative = inhibition": "inactive: -13.6%"},
      {"smiles": "CC(C)CNC(=O)CSc1nc2scc(-c3ccccc3)c2c(=O)[nH]1", "Potency": "inconclusive: 18.9 µM [inhibitor, partial curve]"},
      {"smiles": "Cc1ccc(S(=O)(=O)N2CCOCC2)cc1NC(=O)CSc1ccccn1", "Potency": "active: 29.9 µM"},
      {"smiles": "CCC(C)(C)NC(=O)C(c1ccccn1)N(C(=O)c1csnn1)C1CCCCC1", "note": "(stereo not given)", "Potency": "inconclusive: 23.8 µM [inhibitor, partial curve]"},
      {"smiles": "CCOC(=O)Cc1c(C)nc2c(-c3cccc(Br)c3)c[nH]n2c1=O", "max response, negative = inhibition": "inconclusive: -33.2% [inhibitor]"},
      {"smiles": "CN1CCN(C2=C(Cl)C(=O)N(c3ccc(Cl)c(Cl)c3)C2=O)CC1", "Potency": "active: 26.7 µM"},
      {"smiles": "COc1ccc(-c2cc(C(=O)N(C)CC(=O)Nc3cccc(F)c3)c3ccccc3n2)cc1", "max response, negative = inhibition": "inactive: -6.53%"},
      {"smiles": "CC(C)OC(=O)CSc1nc2ccccc2s1", "Potency": "inconclusive: 26.7 µM [inhibitor, single point]"},
      {"smiles": "COc1cc(/C=C2/C(=N)N3N=C(CC(=O)N4CCOCC4)SC3=NC2=O)ccc1OCc1ccc(F)cc1", "Potency": "inconclusive: 5.32 µM [inhibitor, partial curve]"},
      {"smiles": "CCC(C)NC(=O)Cn1c(=O)n(-c2ccccc2)c(=O)c2ccc(C(=O)NCc3ccco3)cc21", "note": "(stereo not given)", "Potency": "inconclusive: 29.9 µM [inhibitor, partial curve]"},
      {"smiles": "O=C(CN1CCN(Cc2ccccc2)CC1)c1c[nH]c2ccccc12", "max response, negative = inhibition": "inactive: -7.43%"},
      {"smiles": "Cn1c(=O)[nH]c(=O)c2c1nc(N1CCOCC1)n2CCSc1nnnn1-c1ccccc1", "Potency": "inconclusive: 29.9 µM [inhibitor, single point]"},
      {"smiles": "O=C(Nc1ccccc1Br)c1ccc(OC(=S)N2CCOCC2)cc1", "Potency": "active: 29.9 µM"},
      {"smiles": "CCOc1cc(/C=N/N=C2/NC(=O)C(CC(=O)O)S2)ccc1OCc1ccc(Cl)cc1", "note": "(stereo not given)", "Potency": "inconclusive: 21.2 µM [inhibitor, partial curve]"},
      {"smiles": "O=C(NCc1ccc2c(c1)OCO2)C1CCCCC1", "Potency": "inconclusive: 26.7 µM [inhibitor, single point]"},
      {"smiles": "O=C(O)c1ccc(Nc2nc(-c3ccc([N+](=O)[O-])cc3)nc3ccccc23)cc1", "Potency": "inconclusive: 26.7 µM [inhibitor, partial curve]"},
      {"smiles": "Cc1ccccc1OCCCN1CCCC1", "max response, negative = inhibition": "inactive: -4.68%"},
      {"smiles": "C[C@@H](C(=O)Nc1nc(-c2ccccn2)cs1)N1C(=O)C2CCCCC2C1=O", "note": "(stereo not given in full)", "Potency": "active: 16.8 µM"},
      {"smiles": "O=C(NC(NC(=S)Nc1ccccc1Cl)C(Cl)(Cl)Cl)c1cccc(Cl)c1", "note": "(stereo not given)", "Potency": "inconclusive: 29.9 µM [inhibitor, partial curve]"},
      {"smiles": "CCOC(=O)C1CCN(C(=O)c2cc3cc(Cl)ccc3[nH]2)CC1", "Potency": "inconclusive: 26.7 µM [inhibitor, partial curve]"},
      {"smiles": "CN1C(=O)C(O)(CC(=O)/C=C/c2ccco2)c2cc(Br)ccc21", "note": "(stereo not given)", "Potency": "inconclusive: 29.9 µM [inhibitor, partial curve]"},
      {"smiles": "Cc1ccc(NC(=S)Nc2ccccn2)c(C)c1", "max response, negative = inhibition": "inconclusive: -32.8% [inhibitor]"}
    ]}
  ]
}
